Results on three compounds are retold here after PubChem BioAssay AID190 (DTP/NCI, 2004).

The list does not hold the whole screen: it gathers tests that were run many times, whatever their T/C, doses with no T/C, and many T/C values between a quarter and a half above the control. Further doses and runs are listed elsewhere. T/C: endpoint of the treated group in % of that of the vehicle group. Some entries give survivors of the animals treated and no T/C: the source holds a T/C of zero for them, seemingly a mark for toxic or unscored doses. Some survivor counts are full or nearly so, which does not show that the dose was tolerated: the source hardly ever lists a survival T/C far under the control, and the zero likely stands for such cases as well. Counts of survivors are from the toxicity check (mostly the fifth day) where no day follows; animals may have died later. Schedules are NCI's codes, taken here to give the interval after Q, in days (D) or hours (H), and the number of doses after X. Signs of the kind (2×) say how often a value occurs here. Some doses were run more than once; the results are listed from low to high. For survival time, this PubChem deposit counts one and a half times the control or more as active, and values a quarter to a half above the control carry no call in these data; other NCI protocols may use other cut-offs. Some T/C values are followed by the survivors on the day toxicity was checked, most often the fifth; without a count, all were alive then.

The test concerns AKR/Lw mice, AKR lymphoma ip, median survival T/C. Description: NCI In Vivo Anticancer Drug Screen. Data for tumor model Lymphoma AKR (Transplanted) (intraperitoneal) in AKR/Lw mice. Conditions: T/C endpoint: median survival time, higher T/C = longer survival. The procedure:
The antitumor activity of compounds was measured in mice bearing transplantable tumors. Survival or tumor size were measured and the results are expressed as the measurement made in the treated group (T) divided by the measurement made in the vehicle treated control group (C). The tumor model used in this assay is Lymphoma AKR (Transplanted) (intraperitoneal) in AKR/Lw mice

Setting [1] is: dose: 15.0 mg/kg/injection, schedule: Q01DX009 (ip), vehicle: saline.
Where [2] appears, read: dose: 25.0 mg/kg/injection, schedule: Q01DX001 (ip), vehicle: saline.
Setting [3] is: dose: 50.0 mg/kg/injection, schedule: Q01DX001 (ip), vehicle: saline.
Setting [4] is: dose: 100.0 mg/kg/injection, schedule: Q01DX001 (ip), vehicle: saline.
Where [5] appears, read: dose: 100.0 mg/kg/injection, schedule: Q01DX009 (ip), vehicle: saline.
[6] abbreviates: dose: 200.0 mg/kg/injection, schedule: Q01DX001 (ip), vehicle: saline.
[7] abbreviates: dose: 400.0 mg/kg/injection, schedule: Q01DX001 (ip), vehicle: saline.

Consider `O=[N+]([O-])O.[Ga]`, for which the survivor count reads like this: (dose: 2.0 mg/kg/injection, schedule: Q01DX009 (ip), vehicle: saline) 10 of 10; (dose: 2.5 mg/kg/injection, schedule: Q01DX001 (ip), vehicle: saline) 10 of 10; (dose: 4.0 mg/kg/injection, schedule: Q01DX009 (ip), vehicle: saline) 9 of 10; (dose: 5.0 mg/kg/injection, schedule: Q01DX001 (ip), vehicle: saline) 10 of 10; (dose: 12.5 mg/kg/injection, schedule: Q01DX001 (ip), vehicle: saline) 10 of 10; under setting [1], 10 of 10. The survivor count runs as follows: under setting [2], 10 of 10; (dose: 25.0 mg/kg/injection, schedule: Q04DX003 (ip), vehicle: saline) 10 of 10; (dose: 30.0 mg/kg/injection, schedule: Q01DX009 (ip), vehicle: saline) 10 of 10; (dose: 40.0 mg/kg/injection, schedule: Q01DX009 (ip), vehicle: saline) 10 of 10; under setting [3], 10 of 10; (dose: 50.0 mg/kg/injection, schedule: Q04DX003 (ip), vehicle: saline) 10 of 10. The survivor count under setting [4] was 9 of 10 and 10 of 10; the survivor count under setting [5] is on record as 5 of 10; the survivor count (dose: 100.0 mg/kg/injection, schedule: Q04DX003 (ip), vehicle: saline) is 9 of 10 and 10 of 10; the survivor count under setting [6] was 9 of 10 and 10 of 10; the survivor count (dose: 200.0 mg/kg/injection, schedule: Q01DX009 (ip), vehicle: saline) is 1 of 10; the survivor count (dose: 200.0 mg/kg/injection, schedule: Q04DX003 (ip), vehicle: saline) is recorded as 10 of 10. In addition, the survivor count by setting is: (dose: 256.0 mg/kg/injection, schedule: Q04DX003 (ip), vehicle: water) 10 of 10; under setting [7], 7 of 10 and 9 of 10; (dose: 400.0 mg/kg/injection, schedule: Q04DX003 (ip), vehicle: saline) 5 of 10; (dose: 600.0 mg/kg/injection, schedule: Q01DX001 (ip), vehicle: saline) 2 of 10 and 6 of 10. For the same compound, the T/C reads like this: under setting [2], 90, 92, 94, 105 % of control; under setting [3], 94, 97, 115 % of control; under setting [4], 90, 91 [9 of 10 alive], 109, 118 % of control; (dose: 128.0 mg/kg/injection, schedule: Q04DX003 (ip), vehicle: water) 125 % of control; under setting [6], 95 (2×) and 110 % of control [9 of 10 alive]; under setting [7], 87 [7 of 10 alive], 90 [9 of 10 alive], 100 [9 of 10 alive], 113 % of control.

As for `CC(=O)N1C(=O)C2(c3ccccc31)c1cccc3c1C(=C1C(=O)OC(=O)C12)C(=O)N3C(C)=O` (centres undefined), the survivor count under setting [4] was 10 of 10.

Take `CS(=O)(=O)OCCCCOS(C)(=O)=O`: the survivor count (dose: 2.5 mg/kg/injection, schedule: Q01DX009 (ip), vehicle: Klucel (hydroxypropylcellulose) (HPC)) is listed as 10 of 10; the survivor count (dose: 10.0 mg/kg/injection, schedule: Q01DX009 (ip), vehicle: Klucel (hydroxypropylcellulose) (HPC)) is listed as 10 of 10; the survivor count (dose: 10.0 mg/kg/injection, schedule: Q01DX009 (ip), vehicle: saline) is recorded as 10 of 10; the survivor count (dose: 12.0 mg/kg/injection, schedule: Q01DX009 (ip), vehicle: saline) was 10 of 10; the survivor count under setting [1] was 10 of 10; the survivor count (dose: 20.0 mg/kg/injection, schedule: Q01DX009 (ip), vehicle: Klucel (hydroxypropylcellulose) (HPC)) is on record as 10 of 10. Also, the survivor count is 9 of 10 (dose: 25.0 mg/kg/injection, schedule: Q01DX009 (ip), vehicle: saline); 10 of 10 (dose: 32.0 mg/kg/injection, schedule: Q01DX009 (ip), vehicle: saline); 9 of 10 (dose: 50.0 mg/kg/injection, schedule: Q01DX005 (ip), vehicle: Klucel (hydroxypropylcellulose) (HPC)); 10 of 10 (2×) (dose: 50.0 mg/kg/injection, schedule: Q01DX009 (ip), vehicle: saline); 2 of 10 (dose: 64.0 mg/kg/injection, schedule: Q01DX009 (ip), vehicle: saline); 10 of 10 (dose: 75.0 mg/kg/injection, schedule: Q04DX003 (ip), vehicle: saline). Also, the survivor count runs as follows: under setting [4], 10 of 10; (dose: 100.0 mg/kg/injection, schedule: Q01DX005 (ip), vehicle: Klucel (hydroxypropylcellulose) (HPC)) 0 of 10; under setting [5], 8 of 10; (dose: 100.0 mg/kg/injection, schedule: Q04DX003 (ip), vehicle: Klucel (hydroxypropylcellulose) (HPC)) 9 of 10; (dose: 150.0 mg/kg/injection, schedule: Q04DX003 (ip), vehicle: saline) 10 of 10; under setting [6], 8 of 10 and 9 of 10. In addition, the survivor count by setting is: (dose: 200.0 mg/kg/injection, schedule: Q01DX005 (ip), vehicle: Klucel (hydroxypropylcellulose) (HPC)) 4 of 10; (dose: 200.0 mg/kg/injection, schedule: Q04DX003 (ip), vehicle: Klucel (hydroxypropylcellulose) (HPC)) 7 of 10; (dose: 400.0 mg/kg/injection, schedule: Q01DX001 (ip), vehicle: Klucel (hydroxypropylcellulose) (HPC)) 6 of 10; (dose: 400.0 mg/kg/injection, schedule: Q04DX003 (ip), vehicle: Klucel (hydroxypropylcellulose) (HPC)) 1 of 10. Besides, the T/C by setting is: (dose: 5.0 mg/kg/injection, schedule: Q01DX009 (ip), vehicle: saline) 129 % of control [9 of 10 alive]; (dose: 50.0 mg/kg/injection, schedule: Q01DX001 (ip), vehicle: saline, evaluated on day 45) 100 % of control; (dose: 50.0 mg/kg/injection, schedule: Q01DX001 (ip), vehicle: saline, evaluated on day 60) 90, 100, 105, 106, 111 % of control.
